{
  "source": "patent US20180311297A1",
  "about": "“PHARMACEUTICAL COMPOSITION FOR INCREASING CONTENT AND AVAILABILITY OF CYCLIC ADENOSINE MONOPHOSPHATE IN A BODY AND PREPARATION THEREOF” (priority 2012, published 2018)",
  "origin": "cited, not measured here",
  "test_system": "depression patients",
  "settings": "STAR*D study, over 2800 depression patients; cited from earlier work",
  "note": "Some of these results come from one statement about several compounds together. At least one structure is not confirmed: it was looked up by name or label, or the drawing left a doubt. Some compounds share one range, which may span the group rather than tell each member.",
  "data": [
    {"molecule": "Br.CN(C)CCCC1(c2ccc(F)cc2)OCc2cc(C#N)ccc21", "note": "(stereo not shown) [Celexa®]", "values": [
      {"measurement": "time required on average to relieve the symptoms of depression", "result": "6-7 weeks"}
    ]}
  ]
}
